# Where two headings read alike, the source gives them in different places. These are yes or no findings as the source states them, for the method shown. Binding seen in cells or lysates may run through a third protein. Some binding calls cover weakened binding; strength is not graded here. For some of these results: Where a sequence is shown, tags or fusion partners need not be part of it.
# The chains behind the UniProt entries cited, without tags or fusion partners.
# UniProt O15371: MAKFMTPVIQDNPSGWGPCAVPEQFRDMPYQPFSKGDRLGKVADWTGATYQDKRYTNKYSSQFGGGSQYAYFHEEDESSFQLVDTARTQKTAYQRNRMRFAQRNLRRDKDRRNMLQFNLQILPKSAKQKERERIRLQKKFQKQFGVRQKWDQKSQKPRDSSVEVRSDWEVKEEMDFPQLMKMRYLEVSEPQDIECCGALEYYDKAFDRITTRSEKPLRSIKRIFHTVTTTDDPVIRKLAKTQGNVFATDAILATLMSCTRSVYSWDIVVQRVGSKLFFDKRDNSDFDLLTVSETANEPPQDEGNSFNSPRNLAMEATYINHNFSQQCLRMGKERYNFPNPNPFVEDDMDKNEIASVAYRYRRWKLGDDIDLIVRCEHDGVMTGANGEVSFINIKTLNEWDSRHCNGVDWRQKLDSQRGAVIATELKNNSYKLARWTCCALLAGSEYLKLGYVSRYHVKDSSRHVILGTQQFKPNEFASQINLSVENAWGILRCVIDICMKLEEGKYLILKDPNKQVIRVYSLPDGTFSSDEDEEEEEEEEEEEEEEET
# UniProt P60228: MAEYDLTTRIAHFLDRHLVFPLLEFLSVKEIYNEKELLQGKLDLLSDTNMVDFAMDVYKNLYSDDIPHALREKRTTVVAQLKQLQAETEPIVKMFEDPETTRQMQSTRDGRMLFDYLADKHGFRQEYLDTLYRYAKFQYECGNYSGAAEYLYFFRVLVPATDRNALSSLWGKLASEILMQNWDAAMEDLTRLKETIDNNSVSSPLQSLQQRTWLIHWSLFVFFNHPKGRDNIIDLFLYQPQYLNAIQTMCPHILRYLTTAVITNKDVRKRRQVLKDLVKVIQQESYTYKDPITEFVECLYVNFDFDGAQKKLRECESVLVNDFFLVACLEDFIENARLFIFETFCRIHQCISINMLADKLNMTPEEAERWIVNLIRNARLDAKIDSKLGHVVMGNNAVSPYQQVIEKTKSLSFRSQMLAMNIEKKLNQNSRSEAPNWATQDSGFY
# UniProt Q9Y262: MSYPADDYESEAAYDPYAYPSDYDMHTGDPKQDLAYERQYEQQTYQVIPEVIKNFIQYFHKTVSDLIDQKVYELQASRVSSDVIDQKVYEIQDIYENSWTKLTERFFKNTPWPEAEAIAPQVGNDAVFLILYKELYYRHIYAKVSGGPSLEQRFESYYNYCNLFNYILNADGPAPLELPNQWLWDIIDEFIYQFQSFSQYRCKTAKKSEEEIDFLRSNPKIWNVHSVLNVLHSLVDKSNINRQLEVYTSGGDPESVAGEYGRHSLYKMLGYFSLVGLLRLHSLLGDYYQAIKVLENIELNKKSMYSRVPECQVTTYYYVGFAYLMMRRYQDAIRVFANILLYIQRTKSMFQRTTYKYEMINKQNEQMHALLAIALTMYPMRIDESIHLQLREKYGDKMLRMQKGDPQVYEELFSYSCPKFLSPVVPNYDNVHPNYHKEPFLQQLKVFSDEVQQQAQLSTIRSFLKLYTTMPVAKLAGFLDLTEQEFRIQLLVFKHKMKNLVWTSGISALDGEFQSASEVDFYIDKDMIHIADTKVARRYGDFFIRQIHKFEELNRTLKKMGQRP
# UniProt Q04637: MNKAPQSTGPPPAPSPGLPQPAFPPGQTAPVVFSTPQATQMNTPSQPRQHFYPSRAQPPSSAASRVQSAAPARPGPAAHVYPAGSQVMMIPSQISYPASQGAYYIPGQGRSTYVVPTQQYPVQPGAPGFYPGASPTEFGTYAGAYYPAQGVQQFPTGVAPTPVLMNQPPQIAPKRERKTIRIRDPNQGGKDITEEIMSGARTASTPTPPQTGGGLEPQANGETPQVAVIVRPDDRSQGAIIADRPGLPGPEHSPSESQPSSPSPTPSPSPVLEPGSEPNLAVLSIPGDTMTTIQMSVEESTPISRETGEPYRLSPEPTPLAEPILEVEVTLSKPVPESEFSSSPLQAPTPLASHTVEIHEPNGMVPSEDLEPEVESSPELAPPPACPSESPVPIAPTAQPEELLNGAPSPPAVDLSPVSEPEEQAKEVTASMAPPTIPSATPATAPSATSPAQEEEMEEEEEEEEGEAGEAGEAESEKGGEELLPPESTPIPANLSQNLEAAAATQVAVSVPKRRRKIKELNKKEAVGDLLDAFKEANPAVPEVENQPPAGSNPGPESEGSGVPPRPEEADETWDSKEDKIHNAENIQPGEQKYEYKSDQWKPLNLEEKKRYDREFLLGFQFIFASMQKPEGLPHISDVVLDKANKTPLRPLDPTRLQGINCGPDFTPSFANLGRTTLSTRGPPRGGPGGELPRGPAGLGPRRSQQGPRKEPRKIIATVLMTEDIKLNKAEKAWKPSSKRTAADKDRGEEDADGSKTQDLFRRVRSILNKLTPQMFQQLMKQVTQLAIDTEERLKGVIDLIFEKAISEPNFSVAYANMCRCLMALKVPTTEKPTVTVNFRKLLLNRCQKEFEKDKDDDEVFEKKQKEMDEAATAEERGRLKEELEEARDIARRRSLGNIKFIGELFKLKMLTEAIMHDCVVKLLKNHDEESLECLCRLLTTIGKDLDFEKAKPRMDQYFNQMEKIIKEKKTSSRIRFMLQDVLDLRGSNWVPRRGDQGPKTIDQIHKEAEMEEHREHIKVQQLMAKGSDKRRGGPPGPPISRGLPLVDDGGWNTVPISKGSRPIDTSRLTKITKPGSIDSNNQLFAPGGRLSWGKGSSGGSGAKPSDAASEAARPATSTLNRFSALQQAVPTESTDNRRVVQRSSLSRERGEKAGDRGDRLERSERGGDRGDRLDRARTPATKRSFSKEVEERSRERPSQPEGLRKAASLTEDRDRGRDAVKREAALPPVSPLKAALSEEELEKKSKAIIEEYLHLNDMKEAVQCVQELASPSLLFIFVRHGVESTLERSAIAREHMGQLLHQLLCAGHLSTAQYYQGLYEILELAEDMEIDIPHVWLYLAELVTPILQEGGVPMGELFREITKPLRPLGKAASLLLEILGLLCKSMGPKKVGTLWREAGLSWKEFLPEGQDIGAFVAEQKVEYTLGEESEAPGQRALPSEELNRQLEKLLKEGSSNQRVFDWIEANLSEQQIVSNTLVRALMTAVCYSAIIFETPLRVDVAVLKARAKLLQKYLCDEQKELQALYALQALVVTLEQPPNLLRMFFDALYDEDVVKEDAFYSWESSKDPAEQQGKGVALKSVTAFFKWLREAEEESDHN
# UniProt P05198: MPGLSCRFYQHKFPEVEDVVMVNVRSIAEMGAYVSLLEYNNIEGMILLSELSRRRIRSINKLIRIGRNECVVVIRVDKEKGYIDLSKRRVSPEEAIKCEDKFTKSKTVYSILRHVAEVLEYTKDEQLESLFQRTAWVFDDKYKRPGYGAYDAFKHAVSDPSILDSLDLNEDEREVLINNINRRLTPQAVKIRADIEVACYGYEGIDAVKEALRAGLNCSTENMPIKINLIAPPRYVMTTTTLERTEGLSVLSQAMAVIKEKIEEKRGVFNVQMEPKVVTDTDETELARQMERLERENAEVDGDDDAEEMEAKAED
# Columns and labels:
# [1] = biological target: FLAG-eIF3D (UniProt O15371); assay: proximity ligation
# [2] = biological target: FLAG-eIF3D (UniProt O15371); assay: co-IP
# [3] = biological target: T1, GYF motif mutant v5-GIGYF1 (G502A, Y503A, F504A) (human) (UniProt O75420); assay: co-IP
# T1 sequence: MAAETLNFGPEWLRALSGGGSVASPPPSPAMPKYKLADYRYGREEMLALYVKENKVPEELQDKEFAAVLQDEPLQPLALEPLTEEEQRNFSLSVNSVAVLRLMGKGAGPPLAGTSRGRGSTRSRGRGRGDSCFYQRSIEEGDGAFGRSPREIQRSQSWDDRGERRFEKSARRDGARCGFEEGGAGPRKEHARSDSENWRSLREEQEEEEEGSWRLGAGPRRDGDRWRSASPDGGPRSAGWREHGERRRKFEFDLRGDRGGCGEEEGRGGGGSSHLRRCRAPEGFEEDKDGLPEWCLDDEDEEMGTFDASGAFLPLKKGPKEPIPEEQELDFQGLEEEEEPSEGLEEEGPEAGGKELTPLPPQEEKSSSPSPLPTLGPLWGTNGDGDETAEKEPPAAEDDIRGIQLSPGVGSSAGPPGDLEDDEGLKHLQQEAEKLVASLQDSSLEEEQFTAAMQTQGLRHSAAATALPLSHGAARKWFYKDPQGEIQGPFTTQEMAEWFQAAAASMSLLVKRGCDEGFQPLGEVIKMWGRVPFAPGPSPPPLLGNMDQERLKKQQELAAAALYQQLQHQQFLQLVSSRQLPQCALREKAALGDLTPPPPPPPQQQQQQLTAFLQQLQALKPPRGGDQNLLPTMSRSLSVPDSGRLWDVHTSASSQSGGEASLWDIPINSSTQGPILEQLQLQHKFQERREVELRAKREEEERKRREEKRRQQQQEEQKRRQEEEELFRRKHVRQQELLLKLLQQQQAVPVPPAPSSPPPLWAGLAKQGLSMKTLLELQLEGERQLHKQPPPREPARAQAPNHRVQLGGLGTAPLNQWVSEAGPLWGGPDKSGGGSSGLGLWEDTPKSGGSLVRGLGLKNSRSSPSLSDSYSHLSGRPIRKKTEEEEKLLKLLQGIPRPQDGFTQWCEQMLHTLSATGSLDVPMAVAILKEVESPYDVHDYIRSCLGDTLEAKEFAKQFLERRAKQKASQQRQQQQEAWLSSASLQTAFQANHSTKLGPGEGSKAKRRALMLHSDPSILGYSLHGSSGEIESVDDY
# [4] = biological target: T2, v5-GIGYF1 (full-length human GIGYF1) (human) (UniProt O75420); assay: co-IP
# T2 sequence: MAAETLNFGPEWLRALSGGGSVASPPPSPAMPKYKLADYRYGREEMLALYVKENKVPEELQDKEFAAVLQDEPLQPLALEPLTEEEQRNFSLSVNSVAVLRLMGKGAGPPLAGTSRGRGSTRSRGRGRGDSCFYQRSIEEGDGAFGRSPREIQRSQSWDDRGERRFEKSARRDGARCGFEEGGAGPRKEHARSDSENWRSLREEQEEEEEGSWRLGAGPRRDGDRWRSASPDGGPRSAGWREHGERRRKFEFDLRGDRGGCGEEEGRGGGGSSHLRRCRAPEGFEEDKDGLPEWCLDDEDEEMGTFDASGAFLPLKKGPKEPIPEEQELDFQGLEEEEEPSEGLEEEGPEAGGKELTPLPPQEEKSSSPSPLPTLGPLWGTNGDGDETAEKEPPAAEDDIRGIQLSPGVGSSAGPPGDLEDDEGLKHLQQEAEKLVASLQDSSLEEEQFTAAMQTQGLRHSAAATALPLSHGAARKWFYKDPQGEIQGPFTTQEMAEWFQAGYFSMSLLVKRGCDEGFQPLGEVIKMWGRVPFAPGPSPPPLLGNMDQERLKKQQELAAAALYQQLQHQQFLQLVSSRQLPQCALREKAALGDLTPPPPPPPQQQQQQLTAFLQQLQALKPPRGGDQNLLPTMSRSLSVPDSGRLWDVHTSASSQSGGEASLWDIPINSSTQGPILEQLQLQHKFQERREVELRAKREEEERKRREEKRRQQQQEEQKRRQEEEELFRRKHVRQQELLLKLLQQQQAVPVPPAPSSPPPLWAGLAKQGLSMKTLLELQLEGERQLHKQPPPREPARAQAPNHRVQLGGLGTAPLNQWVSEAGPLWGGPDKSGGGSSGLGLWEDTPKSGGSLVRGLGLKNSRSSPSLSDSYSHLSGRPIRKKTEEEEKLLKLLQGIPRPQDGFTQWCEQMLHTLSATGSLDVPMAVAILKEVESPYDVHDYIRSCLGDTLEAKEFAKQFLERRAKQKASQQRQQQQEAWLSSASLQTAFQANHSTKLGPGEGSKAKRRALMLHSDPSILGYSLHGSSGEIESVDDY
# [5] = biological target: endogenous eIF3D (human (endogenous in HEK293)) (UniProt O15371); assay: co-IP
# [6] = biological target: endogenous eIF3E (human (endogenous in HEK293)) (UniProt P60228); assay: co-IP
# [7] = biological target: FLAG-eIF3D (UniProt O15371); assay: proximity ligation; remark: listed apart in the source
# [8] = biological target: FLAG-eIF3L (UniProt Q9Y262); assay: proximity ligation
# [9] = biological target: endogenous eIF3D (human (endogenous in HEK293)) (UniProt O15371); assay: co-IP; remark: listed apart in the source
molecule,measurement,setting,value
HA-eIF4G1 (from UniProt Q04637 1-1599),binding,[1],binds
endogenous eIF2α (from UniProt P05198 1-315),binding,[2],binds
endogenous eIF3D (from UniProt O15371 1-548),binding,[3],binds
same,binding,[4],binds
endogenous eIF3E (from UniProt P60228 1-445),binding,[3],binds
same,binding,[4],binds
endogenous eIF4G1 (from UniProt Q04637 1-1599),binding,[5],binds
same,binding,[6],binds
"v5-tagged GIGYF1 fragment D (541-839) (domain or fragment, UniProt O75420 541-839) PLLGNMDQERLKKQQELAAAALYQQLQHQQFLQLVSSRQLPQCALREKAALGDLTPPPPPPPQQQQQQLTAFLQQLQALKPPRGGDQNLLPTMSRSLSVPDSGRLWDVHTSASSQSGGEASLWDIPINSSTQGPILEQLQLQHKFQERREVELRAKREEEERKRREEKRRQQQQEEQKRRQEEEELFRRKHVRQQELLLKLLQQQQAVPVPPAPSSPPPLWAGLAKQGLSMKTLLELQLEGERQLHKQPPPREPARAQAPNHRVQLGGLGTAPLNQWVSEAGPLWGGPDKSGGGSSGLG",binding,[7],binds
same,binding,[8],binds
"v5-tagged GIGYF1 fragment E (829-1035) (domain or fragment, UniProt O75420 829-1035) DKSGGGSSGLGLWEDTPKSGGSLVRGLGLKNSRSSPSLSDSYSHLSGRPIRKKTEEEEKLLKLLQGIPRPQDGFTQWCEQMLHTLSATGSLDVPMAVAILKEVESPYDVHDYIRSCLGDTLEAKEFAKQFLERRAKQKASQQRQQQQEAWLSSASLQTAFQANHSTKLGPGEGSKAKRRALMLHSDPSILGYSLHGSSGEIESVDDY",binding,[7],binds
same,binding,[8],binds
"endogenous eIF4G2 (DAP5) (protein, UniProt P78344 1-907) MESAIAEGGASRFSASSGGGGSRGAPQHYPKTAGNSEFLGKTPGQNAQKWIPARSTRRDDNSAANNSANEKERHDAIFRKVRGILNKLTPEKFDKLCLELLNVGVESKLILKGVILLIVDKALEEPKYSSLYAQLCLRLAEDAPNFDGPAAEGQPGQKQSTTFRRLLISKLQDEFENRTRNVDVYDKRENPLLPEEEEQRAIAKIKMLGNIKFIGELGKLDLIHESILHKCIKTLLEKKKRVQLKDMGEDLECLCQIMRTVGPRLDHERAKSLMDQYFARMCSLMLSKELPARIRFLLQDTVELREHHWVPRKAFLDNGPKTINQIRQDAVKDLGVFIPAPMAQGMRSDFFLEGPFMPPRMKMDRDPLGGLADMFGQMPGSGIGTGPGVIQDRFSPTMGRHRSNQLFNGHGGHIMPPTQSQFGEMGGKFMKSQGLSQLYHNQSQGLLSQLQGQSKDMPPRFSKKGQLNADEISLRPAQSFLMNKNQVPKLQPQITMIPPSAQPPRTQTPPLGQTPQLGLKTNPPLIQEKPAKTSKKPPPSKEELLKLTETVVTEYLNSGNANEAVNGVREMRAPKHFLPEMLSKVIILSLDRSDEDKEKASSLISLLKQEGIATSDNFMQAFLNVLDQCPKLEVDIPLVKSYLAQFAARAIISELVSISELAQPLESGTHFPLFLLCLQQLAKLQDREWLTELFQQSKVNMQKMLPEIDQNKDRMLEILEGKGLSFLFPLLKLEKELLKQIKLDPSPQTIYKWIKDNISPKLHVDKGFVNILMTSFLQYISSEVNPPSDETDSSSAPSKEQLEQEKQLLLSFKPVMQKFLHDHVDLQVSALYALQVHCYNSNFPKGMLLRFFVHFYDMEIIEEEAFLAWKEDITQEFPGKGKALFQVNQWLTWLETAEEEESEEEAD",binding,[9],binds
